In PubChem BioAssay AID2685 (National Center for Advancing Translational Sciences (NCATS), 2010):
Among all 320,000 compounds or so, about 2,100 (0.66%) were called active. The shares of active, inactive and inconclusive entries below differ from those in the screen. Calls follow the shape of the dose curve; as a rule, active = well fitted inhibition curve with a large enough effect in the signal ratio, with a control signal flat (not every such curve was filed as active); inconclusive = small, poorly fitted or top-dose-only effect, or effect the other way, or a change in a side signal; inactive = flat fitted curve, though single readings scatter; the % refers to the signal ratio. Potencies of inconclusive entries are doubtful fits and often do not repeat.

Assay: qHTS Assay for Lipid Storage Modulators in Drosophila S3 Cells
Details: BODIPY lipid droplet fluorescence, 18-24 h, cells fed with added oleic acid; lipid storage change, negative = inhibition: at 46.1 µM (top of the series) unless noted
Method in brief: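 Laser-scanning cytometry quantifies lipid droplet accumulation (500–530 nm total intensity; droplet/cell object ratio) in oleic acid-fed (400 uM added) Drosophila S3 cells treated with a concentration series. 20 uM Triacsin C defined 100% inhibition.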
% is scaled to controls: 0 for no effect and ±100 for the full control effect; potency is read from the fitted curve at half-maximal effect.

Q: With `Cc1ccc(CN2C(=O)C(C)Nc3ncnc(N4CCOCC4)c32)cc1` (configuration not stated) as the compound, how does the lipid storage change, negative = inhibition read?
A: inconclusive: 9.6%

Q: With `CC(=O)c1ccc(OCC(=O)c2cc(C)n(-c3ccc4c(c3)OCO4)c2C)cc1` as the compound, how does the lipid storage change, negative = inhibition read?
A: inconclusive: -95.6%

Q: With `CCN1C(Nc2ccccc2)=NC[C@@H]1CC(C)C` as the compound, how does the lipid storage change, negative = inhibition read?
A: inconclusive: -34.6%

Q: Which lipid storage change, negative = inhibition does the source give for `CCC(C)N(C(=O)Cn1nnc(-c2ccc(Cl)cc2)n1)C1CCS(=O)(=O)C1` (configuration not stated) here?
A: inconclusive: -6.48%

Q: With `COc1ccccc1N1C(=O)C2C(C(=O)c3ccccc3)=NN(c3ccc(C)cc3)C2C1=O` (configuration not stated) as the compound, how does the Potency read?
A: inconclusive: 0.13 µM [falling, full curve, poor fit]

Q: Which lipid storage change, negative = inhibition does the source give for `O=C(CCN1CCCCO1)N1CCCC(Nc2ccc(F)c(F)c2)C1` (configuration not stated) here?
A: inconclusive: -21.8%

Q: For `NC(=S)Cc1ccc(Cl)cc1Cl`, which lipid storage change, negative = inhibition is on record?
A: inconclusive: 1.2%

Q: Which lipid storage change, negative = inhibition does the source give for `COCCN1CSC(=S)N(Cc2ccco2)C1` here?
A: inconclusive: 191%

Q: With `COc1ccc(CCNC(=O)COC(=O)c2ccc(Br)o2)cc1` as the compound, how does the lipid storage change, negative = inhibition read?
A: inconclusive: 13.8%

Q: Which Potency does the source give for `Cc1cc2c(c(=O)n1Cc1ccccn1)C(c1ccc3c(c1)OCO3)C(C#N)=C(N)O2` (configuration not stated) here?
A: inconclusive: 0.184 µM [activator, full curve]

Q: With `CC(C)(C)c1cc(NC(=O)CSc2nncs2)n(-c2ccccc2)n1` as the compound, how does the lipid storage change, negative = inhibition read?
A: inconclusive: 10%

Q: With `O=c1oc(-c2ccccc2)nc2sc3c(c12)CCCC3` as the compound, how does the “outcome” value read?
A: inactive [at 46.1 µM]

Q: With `CC(=O)NCC(=O)NC1(C(=O)NC2CCCC2)CCCCC1` as the compound, how does the Potency read?
A: inconclusive: 6.51 µM [falling, single point]

Q: With `COC(=O)C1=C(NC(=O)c2ccc(C)c(C)c2)CCS1` as the compound, how does the Potency read?
A: inconclusive: 29.1 µM [activator, single point]

Q: For `O=C(Nc1cccc(Br)c1)c1ccc(CSc2ccccc2)cc1`, which “lipid storage change, negative = inhibition” value is on record?
A: inactive: -18.6%

Q: With `NC(=O)C1(S(=O)(=O)c2ccccc2)CCCCC1` as the compound, how does the lipid storage change, negative = inhibition read?
A: inconclusive: -29.6%

Q: For `COc1ccc(C(=O)Nc2ccc(Br)cn2)cc1S(=O)(=O)N1CCOCC1`, which lipid storage change, negative = inhibition is on record?
A: inconclusive: 17.7%

Q: Which lipid storage change, negative = inhibition does the source give for `Cc1ccc(C(=O)NCCCN2CCOCC2)c(C)c1` here?
A: inconclusive: 2.51%

Q: Which Potency does the source give for `COc1cc(C=O)ccc1OCCCCOc1ccccc1[N+](=O)[O-]` here?
A: inconclusive: 20.6 µM [activator, single point]

Q: With `CC(=O)N1CCC(N(CCN2CCOCC2)C(=S)Nc2cccc(C)c2)CC1` as the compound, how does the lipid storage change, negative = inhibition read?
A: inconclusive: -14.9%

Q: Which lipid storage change, negative = inhibition does the source give for `CCOc1cc(N2CCOCC2)c(OCC)cc1NC(=O)COC(=O)/C=C/c1ccc(OC(F)F)cc1` here?
A: inconclusive: -52.6% [at 0.0737 µM]

Q: Which lipid storage change, negative = inhibition does the source give for `C/C=C\C=C/C(=O)Nc1cccc(C2=NOC3(C2)C[C@@H](C(N)=O)N(C(=O)/C=C/C=C\C)C3)c1` (some centres not stated) here?
A: inconclusive: 15.3%
